Reference: PMC11432454, “An Ingenane-Type Diterpene from Euphorbia kansui Promoted Cell Apoptosis and Macrophage Polarization via the Regulation of PKC Signaling Pathways” (International Journal of Molecular Sciences, 2024)

Tests used:
MCF-7 cells = test: MTT assay, cell viability of MCF-7 cells; assay type: cell-based; details: Homo sapiens, MCF7, n = 3
Method: (§1) 8 × 10^4 cells/well were incubated in 96T wells for 24 h, and the cells were treated with a drug-containing medium for a specified time. Cells were added 20 μL 0.5% MTT (Sigma, USA) to each well, continued to incubate at 37 °C for 3.5 h, then the medium was discarded and 150 μL of DMSO was added to each well to dissolve the purple formazan. The cells were shaken for 15 min at room temperature and read at 490 nm. Cell viability (%) = ([…])/(ODcontrol − ODblank) × 100%. IC50 (half maximal inhibitory concentration) was calculated by SPSS 27.0 software.

A549 cells = test: MTT assay, cell viability of A549 cells; assay type: cell-based; details: Homo sapiens, n = 3
Method: as §1

COc1cccc2c1C(=O)c1c(O)c3c(c(O)c1C2=O)C[C@@](O)(C(=O)CO)C[C@@H]3O[C@H]1C[C@H](N)[C@H](O)[C@H](C)O1 [Adr, adriamycin, reference compound]
IC50 (MCF-7 cells): 3.31 ± 1.01 µM | IC50 (A549 cells): 5.98 ± 2.06 µM
